Source: PMC5036183
Results are given in words; binding and its absence hold for the method and conditions named. Binding seen in cells or lysates may run through a third protein. Some binding calls cover weakened binding; strength is not graded here. Each block holds one substance with its values, some of them ahead of it.

Protein sequences, listed by entry. Tags and fused reporters are not part of them.
UniProt Q06413: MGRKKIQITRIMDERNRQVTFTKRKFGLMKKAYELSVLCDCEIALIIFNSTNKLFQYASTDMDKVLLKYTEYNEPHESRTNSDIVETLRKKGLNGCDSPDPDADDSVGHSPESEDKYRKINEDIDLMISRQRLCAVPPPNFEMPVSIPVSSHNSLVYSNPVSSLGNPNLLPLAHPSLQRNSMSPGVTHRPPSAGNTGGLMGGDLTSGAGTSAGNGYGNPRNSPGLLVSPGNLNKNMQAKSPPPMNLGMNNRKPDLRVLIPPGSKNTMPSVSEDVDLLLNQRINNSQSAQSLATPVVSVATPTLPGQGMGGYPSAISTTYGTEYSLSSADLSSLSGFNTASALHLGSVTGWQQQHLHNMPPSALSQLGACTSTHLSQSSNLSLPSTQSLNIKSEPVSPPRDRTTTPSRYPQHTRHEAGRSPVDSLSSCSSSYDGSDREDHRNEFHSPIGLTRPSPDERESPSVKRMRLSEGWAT
UniProt Q96KQ7: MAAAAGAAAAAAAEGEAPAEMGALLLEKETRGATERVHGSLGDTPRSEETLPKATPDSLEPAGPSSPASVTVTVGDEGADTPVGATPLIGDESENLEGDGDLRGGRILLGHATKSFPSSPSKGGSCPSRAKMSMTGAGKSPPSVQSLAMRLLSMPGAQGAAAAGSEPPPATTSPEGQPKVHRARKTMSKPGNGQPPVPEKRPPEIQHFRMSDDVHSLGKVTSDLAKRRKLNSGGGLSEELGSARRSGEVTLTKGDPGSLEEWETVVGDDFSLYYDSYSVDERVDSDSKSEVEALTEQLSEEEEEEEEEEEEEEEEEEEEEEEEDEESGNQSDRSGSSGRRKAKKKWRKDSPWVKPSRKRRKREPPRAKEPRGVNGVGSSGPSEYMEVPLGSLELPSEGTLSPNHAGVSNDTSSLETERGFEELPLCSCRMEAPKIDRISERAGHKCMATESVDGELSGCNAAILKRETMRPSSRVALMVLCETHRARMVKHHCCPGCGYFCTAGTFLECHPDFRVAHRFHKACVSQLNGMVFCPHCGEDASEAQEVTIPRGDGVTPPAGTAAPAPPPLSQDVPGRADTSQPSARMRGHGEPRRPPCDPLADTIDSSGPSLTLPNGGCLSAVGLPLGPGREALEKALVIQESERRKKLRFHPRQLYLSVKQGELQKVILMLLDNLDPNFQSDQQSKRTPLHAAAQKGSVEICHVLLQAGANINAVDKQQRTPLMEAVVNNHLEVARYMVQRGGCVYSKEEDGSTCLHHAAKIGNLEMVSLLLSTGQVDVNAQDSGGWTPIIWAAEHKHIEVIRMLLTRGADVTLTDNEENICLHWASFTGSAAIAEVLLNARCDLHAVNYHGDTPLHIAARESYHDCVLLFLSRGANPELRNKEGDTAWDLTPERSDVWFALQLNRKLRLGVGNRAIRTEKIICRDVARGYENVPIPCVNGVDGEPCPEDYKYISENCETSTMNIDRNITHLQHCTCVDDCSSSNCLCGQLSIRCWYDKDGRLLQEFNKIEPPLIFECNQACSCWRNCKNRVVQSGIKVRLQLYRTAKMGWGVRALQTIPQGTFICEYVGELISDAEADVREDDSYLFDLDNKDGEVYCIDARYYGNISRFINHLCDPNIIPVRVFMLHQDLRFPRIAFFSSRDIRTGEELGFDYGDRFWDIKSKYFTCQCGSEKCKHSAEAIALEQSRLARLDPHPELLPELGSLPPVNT
UniProt Q9Z2V6: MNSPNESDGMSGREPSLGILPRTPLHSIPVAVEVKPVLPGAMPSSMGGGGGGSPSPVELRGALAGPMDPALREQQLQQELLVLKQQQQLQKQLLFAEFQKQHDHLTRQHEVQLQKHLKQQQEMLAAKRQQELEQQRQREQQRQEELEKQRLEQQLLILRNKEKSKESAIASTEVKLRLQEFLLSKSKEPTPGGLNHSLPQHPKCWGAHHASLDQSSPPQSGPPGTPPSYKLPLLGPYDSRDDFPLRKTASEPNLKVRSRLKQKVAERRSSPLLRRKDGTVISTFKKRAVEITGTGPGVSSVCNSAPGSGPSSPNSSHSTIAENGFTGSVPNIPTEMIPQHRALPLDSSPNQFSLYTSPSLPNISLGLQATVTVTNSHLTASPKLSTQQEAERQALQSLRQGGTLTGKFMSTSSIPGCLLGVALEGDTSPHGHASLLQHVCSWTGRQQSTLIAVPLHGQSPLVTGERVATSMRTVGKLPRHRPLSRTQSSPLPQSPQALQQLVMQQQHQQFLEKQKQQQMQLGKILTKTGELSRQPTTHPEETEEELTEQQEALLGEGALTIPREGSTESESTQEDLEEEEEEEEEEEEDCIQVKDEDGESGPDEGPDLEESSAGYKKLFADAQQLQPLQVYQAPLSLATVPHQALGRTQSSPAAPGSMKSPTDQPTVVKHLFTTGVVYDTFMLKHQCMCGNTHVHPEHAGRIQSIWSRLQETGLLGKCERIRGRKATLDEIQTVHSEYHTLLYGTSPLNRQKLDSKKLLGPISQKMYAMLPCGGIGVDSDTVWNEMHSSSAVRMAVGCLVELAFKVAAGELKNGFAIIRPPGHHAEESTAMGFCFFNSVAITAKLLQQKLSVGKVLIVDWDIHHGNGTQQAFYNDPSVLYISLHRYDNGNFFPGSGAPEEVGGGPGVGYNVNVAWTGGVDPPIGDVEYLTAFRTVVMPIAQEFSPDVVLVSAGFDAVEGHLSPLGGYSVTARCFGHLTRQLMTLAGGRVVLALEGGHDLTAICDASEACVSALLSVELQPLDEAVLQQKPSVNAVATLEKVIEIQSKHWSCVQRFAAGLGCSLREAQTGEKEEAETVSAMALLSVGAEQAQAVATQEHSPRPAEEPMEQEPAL
UniProt Q9Z148: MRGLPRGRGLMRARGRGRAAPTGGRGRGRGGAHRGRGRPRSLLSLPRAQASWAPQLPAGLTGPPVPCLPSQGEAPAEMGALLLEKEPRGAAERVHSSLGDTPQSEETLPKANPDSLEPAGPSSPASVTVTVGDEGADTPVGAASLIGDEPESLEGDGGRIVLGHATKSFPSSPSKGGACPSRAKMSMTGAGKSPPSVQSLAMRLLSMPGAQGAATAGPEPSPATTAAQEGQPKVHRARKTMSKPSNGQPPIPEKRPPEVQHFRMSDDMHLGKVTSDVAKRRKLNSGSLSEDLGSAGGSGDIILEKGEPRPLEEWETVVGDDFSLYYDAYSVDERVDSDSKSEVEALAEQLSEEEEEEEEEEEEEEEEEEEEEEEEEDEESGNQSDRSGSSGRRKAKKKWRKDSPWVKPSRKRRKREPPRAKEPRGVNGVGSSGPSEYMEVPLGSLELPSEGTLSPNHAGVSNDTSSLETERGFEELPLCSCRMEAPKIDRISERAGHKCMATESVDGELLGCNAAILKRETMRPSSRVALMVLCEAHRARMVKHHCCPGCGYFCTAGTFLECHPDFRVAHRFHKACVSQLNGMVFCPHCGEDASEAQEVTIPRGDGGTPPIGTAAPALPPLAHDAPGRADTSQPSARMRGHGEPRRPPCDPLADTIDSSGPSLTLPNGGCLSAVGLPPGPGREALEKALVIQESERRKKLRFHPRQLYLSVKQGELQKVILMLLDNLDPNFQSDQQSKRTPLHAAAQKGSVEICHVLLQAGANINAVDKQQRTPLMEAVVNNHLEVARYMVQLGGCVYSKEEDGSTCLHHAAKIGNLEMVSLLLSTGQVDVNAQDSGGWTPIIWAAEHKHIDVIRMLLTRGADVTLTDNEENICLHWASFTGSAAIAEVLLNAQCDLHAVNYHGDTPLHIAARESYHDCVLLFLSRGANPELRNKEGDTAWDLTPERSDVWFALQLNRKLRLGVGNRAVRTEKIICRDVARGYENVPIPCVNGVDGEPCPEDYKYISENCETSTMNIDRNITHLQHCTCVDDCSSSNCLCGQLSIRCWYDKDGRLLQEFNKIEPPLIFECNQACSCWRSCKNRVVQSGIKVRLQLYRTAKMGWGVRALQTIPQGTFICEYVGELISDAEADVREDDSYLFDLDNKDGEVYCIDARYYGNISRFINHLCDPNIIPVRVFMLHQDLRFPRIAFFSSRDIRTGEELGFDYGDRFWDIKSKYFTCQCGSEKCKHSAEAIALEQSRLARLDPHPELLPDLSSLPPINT
UniProt Q8CFN5: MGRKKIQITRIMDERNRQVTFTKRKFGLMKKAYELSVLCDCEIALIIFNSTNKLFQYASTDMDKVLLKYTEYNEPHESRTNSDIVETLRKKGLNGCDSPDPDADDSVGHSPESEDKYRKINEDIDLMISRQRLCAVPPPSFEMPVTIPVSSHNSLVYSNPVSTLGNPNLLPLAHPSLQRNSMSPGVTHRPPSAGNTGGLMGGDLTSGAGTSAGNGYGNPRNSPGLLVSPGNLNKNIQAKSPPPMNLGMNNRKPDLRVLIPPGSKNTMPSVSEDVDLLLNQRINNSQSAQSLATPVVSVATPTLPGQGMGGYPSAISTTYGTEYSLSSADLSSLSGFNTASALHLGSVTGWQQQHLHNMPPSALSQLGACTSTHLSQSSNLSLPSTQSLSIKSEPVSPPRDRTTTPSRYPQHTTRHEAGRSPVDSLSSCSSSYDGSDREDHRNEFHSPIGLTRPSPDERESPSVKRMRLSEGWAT

What was measured:
[1] = target: Flag-MEF2C (UniProt Q06413); test: co-IP; HEK293T cells co-transfected; RIPA lysates incubated with anti-Flag agarose beads; immunoblot with anti-Flag, anti-GFP or anti-MEF2C; in Fig. 3a cells treated or not with UNC0638 for 48 hr
[2] = target: Flag-MEF2C full length (FL) (UniProt Q06413); test: as above
[3] = target: Flag-G9a (full length) (UniProt Q96KQ7); test: as above
[4] = target: endogenous HDAC5 (mouse (endogenous in C2C12)) (UniProt Q9Z2V6); test: co-IP; endogenous HDAC5 immunoprecipitated (1 mg lysate, 2 μg anti-HDAC5) from lysates of proliferating pBABE and pBABE-G9a (G9a over-expressing) C2C12 cells; blots with anti-G9a, anti-MEF2C, anti-HDAC5
[5] = target: endogenous G9a (mouse (endogenous in C2C12)) (UniProt Q9Z148); test: co-IP; endogenous G9a immunoprecipitated from C2C12 lysates (1 mg lysate, 2 μg anti-G9a); IgG as negative control; blot for endogenous MEF2C

binding [1]: binds
binding [2]: binds
Substance: EGFP-G9a (from UniProt Q96KQ7 1-1210) (enzyme)

binding [3]: binds
Substance: MEF2C (co-transfected with Flag-G9a, Fig. 3b) (from UniProt Q06413 1-473)

binding [4]: binds
Substance: endogenous G9a (from UniProt Q9Z148 1-1263) (enzyme)

binding [5]: binds
binding [4]: binds
Substance: endogenous MEF2C (from UniProt Q8CFN5 1-474)
